Laboratory results from article PMC3169606, “Pub1p C-Terminal RRM Domain Interacts with Tif4631p through a Conserved Region Neighbouring the Pab1p Binding Site” (PLoS ONE, 2011).

Molecular target: T1, Pub1p R12 (RRM1-RRM2) (Saccharomyces cerevisiae) (UniProt P32588)
T1 sequence (looked up): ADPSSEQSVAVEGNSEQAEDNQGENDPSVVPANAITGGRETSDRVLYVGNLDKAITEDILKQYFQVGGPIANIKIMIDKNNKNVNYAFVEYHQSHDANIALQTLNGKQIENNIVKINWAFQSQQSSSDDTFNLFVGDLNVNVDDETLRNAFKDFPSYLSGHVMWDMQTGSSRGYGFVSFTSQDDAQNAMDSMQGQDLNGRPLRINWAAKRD
Assay: NMR titration
Conditions: fast exchange, negligible shifts at 1:1, 100 µM; 25 mM potassium phosphate pH 7.0 (6.5-7.0 in general NMR methods), 25 mM NaCl, 0.5 mM DTT, 25 C; 100 µM protein, RNA up to 400 µM (R3) or 1:1 (R12); recombinant protein; residues 32-242; protein details: TrxA-6xHis tag removed by TEV

AAAAAAAAAAAAAA [A14]
Kd: > 100 µM

Where a protein sequence is shown, tags need not be part of it.
